Test results as given in the supplement of paper PMC12823440, “Inhibitors supercharge kinase turnover through native proteolytic circuits” (Nature, 2025).
Counter-ions that a name gives are not always drawn. Some of the results follow. Hit calls seldom repeat between salt and free forms of one compound.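 Kinases were expressed as nanoluciferase fusions in K562 cells and luminescence was read every 4 h between 2 and 18 h as percent of control, DMSO set to 100% and a positive control to 0%. A time point counts as decreased when the signal drops significantly (2 sigma). The hit call is the authors' own, does not follow from the count of time points alone, and its rule is not shown.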

Chains of the proteins cited; added tags and fusions are not shown. Lines headed by an entry give the natural chain unless they say otherwise; changes in a name come on top.
UniProt Q9UQM7, whole entry: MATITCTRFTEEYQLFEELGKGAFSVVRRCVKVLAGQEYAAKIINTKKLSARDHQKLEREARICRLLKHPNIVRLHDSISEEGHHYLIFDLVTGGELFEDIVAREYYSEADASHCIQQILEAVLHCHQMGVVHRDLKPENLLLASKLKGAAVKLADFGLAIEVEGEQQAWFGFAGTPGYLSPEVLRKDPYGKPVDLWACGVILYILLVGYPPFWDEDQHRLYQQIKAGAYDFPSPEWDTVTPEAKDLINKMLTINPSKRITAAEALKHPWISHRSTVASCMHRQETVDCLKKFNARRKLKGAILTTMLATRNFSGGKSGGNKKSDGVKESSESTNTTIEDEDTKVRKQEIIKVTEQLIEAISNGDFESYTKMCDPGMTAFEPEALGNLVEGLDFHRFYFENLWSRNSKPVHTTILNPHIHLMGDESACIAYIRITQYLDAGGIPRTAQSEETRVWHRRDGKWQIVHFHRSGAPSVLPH
UniProt Q13555: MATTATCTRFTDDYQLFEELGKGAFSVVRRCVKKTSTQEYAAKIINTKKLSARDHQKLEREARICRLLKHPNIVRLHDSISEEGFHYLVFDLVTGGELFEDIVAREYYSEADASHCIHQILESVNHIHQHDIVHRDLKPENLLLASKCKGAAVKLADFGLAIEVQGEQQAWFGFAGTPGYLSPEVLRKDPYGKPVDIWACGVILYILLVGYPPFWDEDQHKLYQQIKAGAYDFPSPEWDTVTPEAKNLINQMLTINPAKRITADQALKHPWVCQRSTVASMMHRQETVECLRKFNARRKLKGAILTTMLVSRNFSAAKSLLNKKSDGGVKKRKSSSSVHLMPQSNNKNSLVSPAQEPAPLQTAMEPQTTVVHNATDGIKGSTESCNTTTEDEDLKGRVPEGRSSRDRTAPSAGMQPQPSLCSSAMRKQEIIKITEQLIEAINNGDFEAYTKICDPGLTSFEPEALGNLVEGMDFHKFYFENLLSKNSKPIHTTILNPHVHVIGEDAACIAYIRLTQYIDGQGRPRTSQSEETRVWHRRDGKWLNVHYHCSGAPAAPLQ
UniProt Q15131: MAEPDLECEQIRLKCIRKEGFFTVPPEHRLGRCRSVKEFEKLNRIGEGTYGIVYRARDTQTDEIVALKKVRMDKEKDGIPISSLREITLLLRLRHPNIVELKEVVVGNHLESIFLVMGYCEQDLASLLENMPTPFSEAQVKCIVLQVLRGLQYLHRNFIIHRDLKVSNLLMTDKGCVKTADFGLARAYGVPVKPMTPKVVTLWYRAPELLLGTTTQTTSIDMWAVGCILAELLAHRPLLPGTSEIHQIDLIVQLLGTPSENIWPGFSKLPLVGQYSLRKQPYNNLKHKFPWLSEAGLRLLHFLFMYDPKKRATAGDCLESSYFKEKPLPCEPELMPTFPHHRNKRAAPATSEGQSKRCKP
UniProt Q00526: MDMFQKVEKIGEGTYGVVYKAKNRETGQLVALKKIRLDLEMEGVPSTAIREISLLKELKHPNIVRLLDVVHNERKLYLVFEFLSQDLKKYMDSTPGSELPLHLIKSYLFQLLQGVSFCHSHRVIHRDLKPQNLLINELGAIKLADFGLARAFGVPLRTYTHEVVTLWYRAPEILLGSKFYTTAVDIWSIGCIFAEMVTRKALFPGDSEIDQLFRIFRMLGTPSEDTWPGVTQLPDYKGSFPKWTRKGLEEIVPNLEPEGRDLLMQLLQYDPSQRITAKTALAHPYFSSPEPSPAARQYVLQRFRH
UniProt Q00535, whole entry, looked up: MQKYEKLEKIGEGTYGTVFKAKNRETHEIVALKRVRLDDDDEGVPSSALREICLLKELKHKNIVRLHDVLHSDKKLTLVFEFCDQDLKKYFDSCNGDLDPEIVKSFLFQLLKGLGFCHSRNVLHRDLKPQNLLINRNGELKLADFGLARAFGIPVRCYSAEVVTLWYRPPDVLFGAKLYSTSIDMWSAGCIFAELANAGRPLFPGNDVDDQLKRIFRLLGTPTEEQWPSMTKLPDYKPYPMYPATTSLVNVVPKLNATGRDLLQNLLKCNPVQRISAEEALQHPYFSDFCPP
UniProt Q00534, whole entry: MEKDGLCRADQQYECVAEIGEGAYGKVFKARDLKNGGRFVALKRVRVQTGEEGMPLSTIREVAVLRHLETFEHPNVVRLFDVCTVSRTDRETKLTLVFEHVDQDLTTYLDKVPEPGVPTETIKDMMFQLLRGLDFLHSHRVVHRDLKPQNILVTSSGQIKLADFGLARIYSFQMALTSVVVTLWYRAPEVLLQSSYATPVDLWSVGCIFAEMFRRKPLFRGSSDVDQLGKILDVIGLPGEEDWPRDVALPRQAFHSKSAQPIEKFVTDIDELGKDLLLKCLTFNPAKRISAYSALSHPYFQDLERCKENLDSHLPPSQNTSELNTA
UniProt O96017, whole entry: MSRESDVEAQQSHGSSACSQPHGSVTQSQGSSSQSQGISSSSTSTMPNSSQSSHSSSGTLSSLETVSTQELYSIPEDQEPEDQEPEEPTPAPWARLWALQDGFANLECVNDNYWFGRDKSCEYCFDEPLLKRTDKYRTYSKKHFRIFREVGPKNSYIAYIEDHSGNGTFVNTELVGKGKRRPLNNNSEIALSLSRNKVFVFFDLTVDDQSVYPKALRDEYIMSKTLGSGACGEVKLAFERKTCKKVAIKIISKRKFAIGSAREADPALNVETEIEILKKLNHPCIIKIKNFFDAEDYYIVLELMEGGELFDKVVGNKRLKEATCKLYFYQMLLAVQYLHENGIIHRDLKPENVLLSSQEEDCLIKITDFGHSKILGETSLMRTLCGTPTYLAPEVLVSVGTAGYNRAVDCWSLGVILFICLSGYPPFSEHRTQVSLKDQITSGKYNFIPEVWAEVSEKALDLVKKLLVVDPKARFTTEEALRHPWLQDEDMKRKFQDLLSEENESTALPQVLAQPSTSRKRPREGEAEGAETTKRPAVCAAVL
UniProt P07333, whole entry: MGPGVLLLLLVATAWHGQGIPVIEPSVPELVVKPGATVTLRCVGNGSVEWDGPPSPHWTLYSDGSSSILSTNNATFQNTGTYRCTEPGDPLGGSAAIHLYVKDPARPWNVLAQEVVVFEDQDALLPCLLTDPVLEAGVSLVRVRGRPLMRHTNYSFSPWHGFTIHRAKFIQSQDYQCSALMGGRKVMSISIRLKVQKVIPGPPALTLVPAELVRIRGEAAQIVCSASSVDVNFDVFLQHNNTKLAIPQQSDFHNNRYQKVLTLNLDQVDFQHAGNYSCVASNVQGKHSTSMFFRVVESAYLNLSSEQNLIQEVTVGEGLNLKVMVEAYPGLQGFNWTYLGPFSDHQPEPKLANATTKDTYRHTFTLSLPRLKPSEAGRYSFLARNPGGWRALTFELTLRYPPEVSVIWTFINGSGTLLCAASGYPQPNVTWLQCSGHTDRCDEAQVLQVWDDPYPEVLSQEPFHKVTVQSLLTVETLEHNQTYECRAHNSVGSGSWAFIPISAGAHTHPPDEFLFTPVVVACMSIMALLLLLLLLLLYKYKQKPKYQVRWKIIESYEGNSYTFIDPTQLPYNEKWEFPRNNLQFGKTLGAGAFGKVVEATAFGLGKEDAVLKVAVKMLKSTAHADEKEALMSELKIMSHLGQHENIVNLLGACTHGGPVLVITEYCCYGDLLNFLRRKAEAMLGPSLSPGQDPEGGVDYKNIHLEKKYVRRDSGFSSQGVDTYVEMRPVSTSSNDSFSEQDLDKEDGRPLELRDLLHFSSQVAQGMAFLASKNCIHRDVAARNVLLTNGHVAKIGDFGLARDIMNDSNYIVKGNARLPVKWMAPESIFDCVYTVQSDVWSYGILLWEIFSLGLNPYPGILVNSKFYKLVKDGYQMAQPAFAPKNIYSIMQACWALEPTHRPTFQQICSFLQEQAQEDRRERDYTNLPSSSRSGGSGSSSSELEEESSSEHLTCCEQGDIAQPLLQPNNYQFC
UniProt P41240: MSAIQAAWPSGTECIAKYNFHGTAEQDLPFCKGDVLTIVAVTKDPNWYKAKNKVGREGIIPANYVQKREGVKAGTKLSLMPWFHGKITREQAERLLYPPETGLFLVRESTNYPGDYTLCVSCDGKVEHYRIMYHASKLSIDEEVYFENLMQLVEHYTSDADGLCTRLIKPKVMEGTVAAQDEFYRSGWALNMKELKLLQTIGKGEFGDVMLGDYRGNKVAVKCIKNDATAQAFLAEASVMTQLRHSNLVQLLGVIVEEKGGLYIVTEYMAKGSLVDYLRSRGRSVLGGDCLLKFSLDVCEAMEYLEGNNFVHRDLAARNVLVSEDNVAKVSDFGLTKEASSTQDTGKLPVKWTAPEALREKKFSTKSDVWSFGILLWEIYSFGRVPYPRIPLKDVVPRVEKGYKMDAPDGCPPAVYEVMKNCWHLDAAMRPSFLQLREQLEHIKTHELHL

What was measured:
Test in all cases: number of time points (of 5) at which kinase-Nluc abundance scored as decreased, DMSO-normalised (count); higher = more persistent destabilization
Conditions in all cases: K562; 2-18 h
[1] = target: CAMK2A (UniProt Q9UQM7)
[2] = target: CAMK2G (UniProt Q13555)
[3] = target: CDK10 (UniProt Q15131)
[4] = target: CDK2 (UniProt P24941)
[5] = target: CDK3 (UniProt Q00526)
[6] = target: CDK5 (UniProt Q00535)
[7] = target: CDK6 (UniProt Q00534)
[8] = target: CHEK2 (UniProt O96017)
[9] = target: CSF1R (UniProt P07333)
[10] = target: CSK (UniProt P41240)

With `N#Cc1cccc(-c2c[nH]c3ncnc(N4CCOCC4)c23)c1` (10 µM) as the molecule, how does the “number of time points” value [1] read?
The value was 0.

What about the “number of time points” value [2] of the same molecule?
Its value is 0.

What about the “number of time points” value [3] of the same molecule?
The value was 0.

What about the “number of time points” value [4] of the same molecule?
Its value is 0.

And the “number of time points” value [5]?
The value was 0.

And the “number of time points” value [6]?
Its value is 0.

What about the “number of time points” value [7] of the same molecule?
The value was 0.

What about the “number of time points” value [8] of the same molecule?
Its value is 0.

What about the “number of time points” value [9] of the same molecule?
Its value is 0.

And the “number of time points” value [10]?
Its value is 0.

What does the source list for `Cc1c(CN2CCN(S(C)(=O)=O)CC2)sc2c(N3CCOCC3)nc(-c3cnc(N)nc3)nc12` (2.5 µM)?
number of time points [1]: 0; number of time points [2]: 0; number of time points [3]: 0; number of time points [4]: 0; number of time points [5]: 0; number of time points [6]: 0; number of time points [7]: 2; number of time points [8]: 0; number of time points [9]: 0; number of time points [10]: 0

What does the source list for `NC1(Cc2ccc(Cl)cc2)CCN(c2ncnc3[nH]ccc23)CC1` (10 µM)?
number of time points [1]: 0; number of time points [2]: 0; number of time points [3]: 0; number of time points [4]: 0; number of time points [5]: 0; number of time points [6]: 0; number of time points [7]: 0; number of time points [8]: 0; number of time points [9]: 0; number of time points [10]: 0

With `COc1cc2ncnc(Nc3cccc(Cl)c3)c2cc1OC` (10 µM) as the molecule, how does the “number of time points” value [1] read?
The value was 0.

And the “number of time points” value [2]?
Its value is 0.

And the “number of time points” value [3]?
Its value is 0.

And the “number of time points” value [4]?
Its value is 0.

What about the “number of time points” value [5] of the same molecule?
Its value is 0.

What about the “number of time points” value [6] of the same molecule?
The value was 0.

What about the “number of time points” value [7] of the same molecule?
The value was 0.

And the “number of time points” value [8]?
Its value is 0.

And the “number of time points” value [9]?
Its value is 0.

And the “number of time points” value [10]?
Its value is 0.

`CC(C)=CC(=O)CCC(=O)N1CCN(Cc2cc3nc(-c4cccc5[nH]ncc45)nc(N4CCOCC4)c3s2)CC1` (10 µM) was tested. Which “number of time points” value [1] did it give?
The value was 0.

What about the “number of time points” value [2] of the same molecule?
The value was 0.

And the “number of time points” value [3]?
Its value is 0.

And the “number of time points” value [4]?
The value was 0.

What about the “number of time points” value [5] of the same molecule?
Its value is 0.

What about the “number of time points” value [6] of the same molecule?
Its value is 0.

And the “number of time points” value [7]?
Its value is 5.

What about the “number of time points” value [8] of the same molecule?
The value was 0.

What about the “number of time points” value [9] of the same molecule?
Its value is 0.

And the “number of time points” value [10]?
Its value is 0.

With `CCOc1cc(C(=O)N2CCC(N3CCN(C)CC3)CC2)ccc1Nc1ncc2c(n1)N(C1CCCC1)c1ccccc1C(=O)N2C` (10 µM) as the molecule, how does the “number of time points” value [1] read?
The value was 0.

What about the “number of time points” value [2] of the same molecule?
Its value is 0.

What about the “number of time points” value [3] of the same molecule?
Its value is 0.

And the “number of time points” value [4]?
Its value is 0.

And the “number of time points” value [5]?
Its value is 0.

And the “number of time points” value [6]?
The value was 0.

And the “number of time points” value [7]?
The value was 0.

What about the “number of time points” value [8] of the same molecule?
The value was 0.

What about the “number of time points” value [9] of the same molecule?
Its value is 0.

What about the “number of time points” value [10] of the same molecule?
The value was 0.

With `CC(C)(NS(=O)(=O)c1ccc2c(Cl)cnc(N=C(N)N)c2c1)C(=O)O` (10 µM) as the molecule, how does the “number of time points” value [1] read?
Its value is 0.

What about the “number of time points” value [2] of the same molecule?
The value was 0.

What about the “number of time points” value [3] of the same molecule?
Its value is 0.

What about the “number of time points” value [4] of the same molecule?
Its value is 0.

And the “number of time points” value [5]?
Its value is 0.

What about the “number of time points” value [6] of the same molecule?
Its value is 0.

What about the “number of time points” value [7] of the same molecule?
The value was 0.

And the “number of time points” value [8]?
Its value is 0.

What about the “number of time points” value [9] of the same molecule?
The value was 0.

What about the “number of time points” value [10] of the same molecule?
The value was 0.

Which results are given for `CC(c1ccc(-c2cnc3c(-c4ccc(S(N)(=O)=O)c5ccccc45)cnn3c2)cc1)N1CCCC1` (stereo not given) (2.5 µM)?
number of time points [1]: 0; number of time points [2]: 0; number of time points [3]: 0; number of time points [4]: 0; number of time points [5]: 0; number of time points [6]: 0; number of time points [7]: 0; number of time points [8]: 0; number of time points [9]: 0; number of time points [10]: 0

`CC(=NNC(=O)c1ccc(C)c(Br)c1)c1ccc(O)cc1O` [mTOR inhibitor-1] (2.5 µM) was tested. Which “number of time points” value [1] did it give?
The value was 0.

What about the “number of time points” value [2] of the same molecule?
Its value is 0.

And the “number of time points” value [3]?
Its value is 0.

And the “number of time points” value [4]?
Its value is 0.

What about the “number of time points” value [5] of the same molecule?
The value was 0.

And the “number of time points” value [6]?
The value was 0.

What about the “number of time points” value [7] of the same molecule?
The value was 0.

And the “number of time points” value [8]?
The value was 0.

What about the “number of time points” value [9] of the same molecule?
The value was 0.

What about the “number of time points” value [10] of the same molecule?
The value was 0.

For `CC(C)=CC[C@H](O)C1=CC(=O)c2c(O)ccc(O)c2C1=O` [(-)-Alkannin] (2.5 µM), which “number of time points” value [1] is on record?
Its value is 0.

What about the “number of time points” value [2] of the same molecule?
The value was 0.

What about the “number of time points” value [3] of the same molecule?
The value was 0.

What about the “number of time points” value [4] of the same molecule?
The value was 0.

And the “number of time points” value [5]?
Its value is 0.

And the “number of time points” value [6]?
The value was 0.

What about the “number of time points” value [7] of the same molecule?
Its value is 0.

And the “number of time points” value [8]?
Its value is 0.

And the “number of time points” value [9]?
The value was 0.

And the “number of time points” value [10]?
Its value is 0.

Which results are given for `CN1CCN(c2ccc(C(=O)Nc3cc(-c4cccc(NS(=O)(=O)c5ccccc5)c4)[nH]n3)cc2)CC1` [BPR1J-097 Hydrochloride] (2.5 µM)?
number of time points [1]: 0; number of time points [2]: 0; number of time points [3]: 0; number of time points [4]: 0; number of time points [5]: 0; number of time points [6]: 0; number of time points [7]: 0; number of time points [8]: 0; number of time points [9]: 0; number of time points [10]: 0

For `COc1ncc(-c2nc(N3CCOCC3)nc3c(CN4CCC(C(C)(C)O)CC4)cc(F)cc23)cc1NS(C)(=O)=O` [Linperlisib] (10 µM), which “number of time points” value [1] is on record?
Its value is 0.

What about the “number of time points” value [2] of the same molecule?
Its value is 0.

What about the “number of time points” value [3] of the same molecule?
The value was 0.

And the “number of time points” value [4]?
The value was 0.

And the “number of time points” value [5]?
The value was 0.

What about the “number of time points” value [6] of the same molecule?
Its value is 0.

And the “number of time points” value [7]?
Its value is 0.

What about the “number of time points” value [8] of the same molecule?
The value was 0.

What about the “number of time points” value [9] of the same molecule?
The value was 0.

And the “number of time points” value [10]?
Its value is 0.

What does the source list for `CN1CCN(c2ccc(Nc3ncc4nc(Nc5ccccc5)n([C@@H]5CCN(S(=O)(=O)C6CC6)C5)c4n3)cc2)CC1` (2.5 µM)?
number of time points [1]: 0; number of time points [2]: 0; number of time points [3]: 0; number of time points [4]: 0; number of time points [5]: 0; number of time points [6]: 0; number of time points [7]: 0; number of time points [8]: 0; number of time points [9]: 0; number of time points [10]: 0

With `Cc1cc(-c2cc(OC(=O)c3ccccc3)ccc2Cl)cc2nnc(Nc3ccc(OCCN4CCCC4)cc3)nc12` (0.5 µM) as the molecule, how does the “number of time points” value [1] read?
The value was 0.

What about the “number of time points” value [2] of the same molecule?
Its value is 0.

And the “number of time points” value [3]?
The value was 0.

What about the “number of time points” value [4] of the same molecule?
Its value is 0.

What about the “number of time points” value [5] of the same molecule?
Its value is 0.

And the “number of time points” value [6]?
Its value is 0.

And the “number of time points” value [7]?
The value was 0.

And the “number of time points” value [8]?
Its value is 0.

And the “number of time points” value [9]?
The value was 0.

What about the “number of time points” value [10] of the same molecule?
Its value is 0.

`CC(C)(C)NC(=O)c1cncn1C1CCN(c2ccc(-c3nnc(C(F)(F)F)o3)cn2)CC1` (10 µM) was tested. Which “number of time points” value [1] did it give?
The value was 0.

And the “number of time points” value [2]?
Its value is 0.

And the “number of time points” value [3]?
Its value is 0.

What about the “number of time points” value [4] of the same molecule?
Its value is 0.

And the “number of time points” value [5]?
The value was 0.

What about the “number of time points” value [6] of the same molecule?
The value was 0.

And the “number of time points” value [7]?
The value was 0.

And the “number of time points” value [8]?
Its value is 0.

And the “number of time points” value [9]?
The value was 0.

And the “number of time points” value [10]?
Its value is 0.

Which “number of time points” value [1] does the source give for `COc1ccc2c(c1O)OC(C)(C)c1c-2ccc2c1C(=O)N(c1ccc(C(=O)c3ccccc3)cc1)C2=O` [Ampkinone] (10 µM) here?
The value was 0.

What about the “number of time points” value [2] of the same molecule?
Its value is 0.

And the “number of time points” value [3]?
The value was 0.

What about the “number of time points” value [4] of the same molecule?
Its value is 0.

What about the “number of time points” value [5] of the same molecule?
The value was 0.

What about the “number of time points” value [6] of the same molecule?
Its value is 0.

And the “number of time points” value [7]?
Its value is 0.

What about the “number of time points” value [8] of the same molecule?
Its value is 0.

What about the “number of time points” value [9] of the same molecule?
Its value is 0.

And the “number of time points” value [10]?
Its value is 0.
